PubChem BioAssay AID1259254 – NCATS | 2017

Aim: 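Finding genes that stop cells copying their DNA twice in one cycle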 (primary screen)
Cell system: human HCT116 colorectal cancer cells
Knock-down reagent: single siRNA against human genes
Time to read-out: 3 days
Measured: 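Imaged Hoechst DNA stain sorts each cell into a cycle phase by DNA amount; per plate, G2 fraction set to 0% for non-targeting and 100% for GMNN siRNA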
Scale: G2 robust z-score: higher = more G2 cells, more excess DNA replication
Rule for the call: 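Active siRNAs have a G2 robust z of 5 or more median absolute deviations over the median, which in these data means about 38% or higher of GMNN control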
Here is a random part of about 59,000 deposited reagents. Of all reagents, about 1,550 (2.6%) got an active call. 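G2 share is only a proxy for re-replication; each gene was hit by three separate siRNAs, and active genes were retested.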 The numbers tell different reagents against one gene apart. Further read-outs or replicates are left out here. The record does not give: the amount of reagent.

no.	gene	reagent	G2 robust z-score	activity call
1	HAUS5 (HAUS augmin like complex subunit 5)	1	-0.0572	inactive
2	HAUS5 (HAUS augmin like complex subunit 5)	2	0.216	inactive
3	HAUS5 (HAUS augmin like complex subunit 5)	3	-0.702	inactive
4	MMGT1 (membrane magnesium transporter 1)	1	-0.465	inactive
5	MMGT1 (membrane magnesium transporter 1)	2	-0.546	inactive
6	MMGT1 (membrane magnesium transporter 1)	3	-0.912	inactive
7	KIR2DS1	1	1.96	inactive
8	KIR2DS1	2	-0.0314	inactive
9	KIR2DS1	3	1.37	inactive
10	FGF9 (fibroblast growth factor 9)	1	-0.276	inactive
11	FGF9 (fibroblast growth factor 9)	2	2.6	inactive
12	FGF9 (fibroblast growth factor 9)	3	0.0968	inactive
13	ZMIZ2 (zinc finger MIZ-type containing 2)	1	-0.162	inactive
14	ZMIZ2 (zinc finger MIZ-type containing 2)	2	0.0985	inactive
15	ZMIZ2 (zinc finger MIZ-type containing 2)	3	0.183	inactive
16	KIR3DP1	1	1.38	inactive
17	KIR3DP1	2	-0.927	inactive
18	KIR3DP1	3	0.979	inactive
19	RAB4B (RAB4B, member RAS oncogene family)	1	3.05	inactive
20	RAB4B (RAB4B, member RAS oncogene family)	2	0.263	inactive
21	RAB4B (RAB4B, member RAS oncogene family)	3	-0.841	inactive
22	RGL2 (ral guanine nucleotide dissociation stimulator like 2)	1	0.099	inactive
23	RGL2 (ral guanine nucleotide dissociation stimulator like 2)	2	7.18	active
24	RGL2 (ral guanine nucleotide dissociation stimulator like 2)	3	1.64	inactive
25	CTNNBIP1 (catenin beta interacting protein 1)	1	-0.316	inactive
26	CTNNBIP1 (catenin beta interacting protein 1)	2	-0.0329	inactive
27	CTNNBIP1 (catenin beta interacting protein 1)	3	0.0793	inactive
28	PRKD1 (protein kinase D1)	1	-1.53	inactive
29	PRKD1 (protein kinase D1)	2	-1.88	inactive
30	PRKD1 (protein kinase D1)	3	0.286	inactive
31	MAT2A (methionine adenosyltransferase 2A)	1	-0.393	inactive
32	MAT2A (methionine adenosyltransferase 2A)	2	-1.06	inactive
33	MAT2A (methionine adenosyltransferase 2A)	3	-0.465	inactive
34	IL10 (interleukin 10)	1	2.48	inactive
35	IL10 (interleukin 10)	2	0.485	inactive
36	IL10 (interleukin 10)	3	-0.853	inactive
37	S100A11P1 (S100A11 pseudogene 1)	1	0.81	inactive
38	S100A11P1 (S100A11 pseudogene 1)	2	-0.525	inactive
39	S100A11P1 (S100A11 pseudogene 1)	3	-0.759	inactive
40	MS4A13 (membrane spanning 4-domains A13)	1	3.74	inactive
41	MS4A13 (membrane spanning 4-domains A13)	2	4.5	inactive
42	MS4A13 (membrane spanning 4-domains A13)	3	0.357	inactive
43	DAPK1 (death associated protein kinase 1)	1	-0.44	inactive
44	DAPK1 (death associated protein kinase 1)	2	1.66	inactive
45	DAPK1 (death associated protein kinase 1)	3	-0.717	inactive
46	SMIM11 (small integral membrane protein 11)	1	0.808	inactive
47	SMIM11 (small integral membrane protein 11)	2	-0.364	inactive
48	SMIM11 (small integral membrane protein 11)	3	-0.794	inactive
49	GATA3 (GATA binding protein 3)	1	-0.193	inactive
50	GATA3 (GATA binding protein 3)	2	1.62	inactive
51	GATA3 (GATA binding protein 3)	3	-0.294	inactive
52	PLEKHM1P1	1	-1.02	inactive
53	PLEKHM1P1	2	-0.639	inactive
54	PLEKHM1P1	3	-0.351	inactive
55	ST8SIA6 (ST8 alpha-N-acetyl-neuraminide alpha-2,8-sialyltransferase 6)	1	3.14	inactive
56	ST8SIA6 (ST8 alpha-N-acetyl-neuraminide alpha-2,8-sialyltransferase 6)	2	3.73	inactive
57	ST8SIA6 (ST8 alpha-N-acetyl-neuraminide alpha-2,8-sialyltransferase 6)	3	1.39	inactive
58	CFAP69 (cilia and flagella associated protein 69)	1	-0.691	inactive
59	CFAP69 (cilia and flagella associated protein 69)	2	0.181	inactive
60	CFAP69 (cilia and flagella associated protein 69)	3	-0.0204	inactive
61	HSFX2 (heat shock transcription factor family, X-linked 2)	1	-0.259	inactive
62	HSFX2 (heat shock transcription factor family, X-linked 2)	2	3.8	inactive
63	HSFX2 (heat shock transcription factor family, X-linked 2)	3	-0.323	inactive
64	ASAH1 (N-acylsphingosine amidohydrolase 1)	1	-0.842	inactive
65	ASAH1 (N-acylsphingosine amidohydrolase 1)	2	-1.08	inactive
66	ASAH1 (N-acylsphingosine amidohydrolase 1)	3	0.836	inactive
67	LRRC41 (leucine rich repeat containing 41)	1	-1.35	inactive
68	LRRC41 (leucine rich repeat containing 41)	2	-0.423	inactive
69	LRRC41 (leucine rich repeat containing 41)	3	-1.27	inactive
